These are yes or no findings as the source states them, for the method shown. In cells and extracts the contact can be indirect. Some binding calls cover weakened binding; strength is not graded here. Sequences can lack the tags named with a protein.
Assays:
[1] = target: T1, FLAG-tagged HDAC8 (histone deacetylase 8) (UniProt Q9BY41); experiment: co-IP; HEK-293T cells co-transfected with FLAG-HDAC8 and HA-HIF-1α; IP with IgG or anti-FLAG antibodies and A/G beads at 4 °C overnight, washed with lysis buffer (300 mM NaCl); immunoblot with antibodies against FLAG and HA
T1 sequence: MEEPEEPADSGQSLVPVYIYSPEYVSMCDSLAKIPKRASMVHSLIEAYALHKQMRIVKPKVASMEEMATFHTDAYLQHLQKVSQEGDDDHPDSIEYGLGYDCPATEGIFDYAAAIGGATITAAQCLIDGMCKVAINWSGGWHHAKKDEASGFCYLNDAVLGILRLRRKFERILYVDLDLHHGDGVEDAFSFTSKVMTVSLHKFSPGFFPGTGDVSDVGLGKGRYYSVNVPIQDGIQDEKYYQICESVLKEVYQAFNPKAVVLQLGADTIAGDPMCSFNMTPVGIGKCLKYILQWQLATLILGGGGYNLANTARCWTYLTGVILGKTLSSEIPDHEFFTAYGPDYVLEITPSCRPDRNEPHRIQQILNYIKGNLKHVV

Amino acid sequences for entries named in this document (tags omitted).
UniProt Q16665: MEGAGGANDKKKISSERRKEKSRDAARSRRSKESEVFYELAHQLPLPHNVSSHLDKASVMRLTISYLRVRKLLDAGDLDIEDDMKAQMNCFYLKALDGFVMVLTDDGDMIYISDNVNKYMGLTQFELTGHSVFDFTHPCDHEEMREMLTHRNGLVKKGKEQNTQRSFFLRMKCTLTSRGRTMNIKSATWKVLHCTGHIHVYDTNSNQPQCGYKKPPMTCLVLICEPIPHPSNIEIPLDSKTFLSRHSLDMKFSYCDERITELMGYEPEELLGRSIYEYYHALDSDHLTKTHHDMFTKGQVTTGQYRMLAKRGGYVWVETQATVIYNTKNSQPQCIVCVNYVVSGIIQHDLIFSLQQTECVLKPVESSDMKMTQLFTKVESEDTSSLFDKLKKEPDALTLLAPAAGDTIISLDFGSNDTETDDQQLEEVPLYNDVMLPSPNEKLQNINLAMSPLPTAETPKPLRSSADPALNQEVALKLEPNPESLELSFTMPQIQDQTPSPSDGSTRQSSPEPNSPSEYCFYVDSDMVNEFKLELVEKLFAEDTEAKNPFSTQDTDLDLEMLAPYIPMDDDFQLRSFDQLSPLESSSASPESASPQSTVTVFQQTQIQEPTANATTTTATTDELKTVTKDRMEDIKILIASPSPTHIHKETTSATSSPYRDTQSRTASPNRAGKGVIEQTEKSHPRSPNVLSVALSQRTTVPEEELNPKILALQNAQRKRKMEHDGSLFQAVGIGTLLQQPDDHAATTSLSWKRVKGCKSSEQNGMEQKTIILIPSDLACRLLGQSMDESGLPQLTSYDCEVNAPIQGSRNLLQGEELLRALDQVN

[2] = target: T2, endogenous HDAC8 (histone deacetylase 8) (human (endogenous in A2058)) (UniProt Q9BY41); experiment: co-IP; endogenous proteins in A2058 cells treated with 100 µM CoCl2 for 12 h; IP with IgG or HDAC8 antibody and A/G beads at 4 °C overnight, washed with lysis buffer (300 mM NaCl); immunoblot with antibodies against HDAC8 and HIF-1α
T2 sequence: T1 sequence

binding [1]	binding [2]	Substance
binds		HA-tagged HIF-1α (hypoxia-inducible factor-1 α) (from UniProt Q16665 1-826)
	binds	endogenous HIF-1α (hypoxia-inducible factor-1 α) (from UniProt Q16665 1-826)

Source: article PMC9953989
